# Experimental data taken from the supplement of paper PMC8728848.
# This is one part of the list.
# B1: GS7807I-bvu-563-22-563 (Bacteroides vulgatus) (protein)
# chain: IFSSCTDDFEKLNTSNIQVDPADLPFAAQCTEPMTYCYPPQQNMFQFWTNLTIDLYGGYFMTPNGNFTNGDMGENRGHSGGMYENYYLHIFNNTRRIIAQCDASGERGLSGVMRIVQAYGTLMTTDAYGPIPYSSILSGENEVYFEFDSQKDLYKAMLEDLSTAITDISAMGADEIAKLKSFDCWCNGDKDLWVKIANTMKLRMALRLSKRETEAGNAGMNLKAIATEAAQNTLATVNKDILIDKSLENEMWLMFNWGDCGFNANLVTIMSGTKDPRQPLYMTLNTGDIKNEAGTTTVAANSQYLGIRFASGLPAKPNSWGNFSGWIQGNNGSSYSMPLPIMKAAEAYFLLAEAKLRWDIGSESVKNLYENGIRVSMTNELAYRGAYAGIKEYPEGAVDAYINGTSTQIDYTDPIKAELSTPAVNKLSVKWDESASNEEKLERIITQKWLALFPLSTEGWAEQRRTGYPRFFPAFVNESNGAVNTEEGVRRVIYSSQAYDANAKGVEGGIKLLDEENSSKFGISGDKGGTHLWWDNADKGNF
# Experiments:
# Test in all cases: glycan array binding signal (z-score within array); higher = stronger binding
# Details in all cases: glycan notation: IUPAC condensed, linker removed
# [1] = target: Fuc(a1-3)GlcNAc
# Procedure, shortened: (§1)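 From the Consortium for Functional Glycomics database, 3228 arrays were curated, keeping only those whose protein sequence was available. Binding is given as a within-array Z-score averaged across arrays sharing a protein sequence and across linkers. Negative Z-scores can be read as non-binding.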
# [2] = target: Fuc(a1-3)[Gal(b1-4)]Glc6S
# Procedure, shortened: as §1
# [3] = target: Fuc(a1-3)[Gal(b1-4)]GlcNAc
# Procedure, shortened: as §1
# [4] = target: Fuc(a1-3)[Gal(b1-4)]GlcNAc(b1-2)Man
# Procedure, shortened: as §1
# [5] = target: Fuc(a1-3)[Gal(b1-4)]GlcNAc(b1-2)Man(a1-3)[Fuc(a1-3)[Gal(b1-4)]GlcNAc(b1-2)Man(a1-6)]Man(b1-4)GlcNAc(b1-4)GlcNAc
# Procedure, shortened: as §1
# [6] = target: Fuc(a1-3)[Gal(b1-4)]GlcNAc(b1-2)Man(a1-3)[Fuc(a1-3)[Gal(b1-4)]GlcNAc(b1-2)Man(a1-6)]Man(b1-4)GlcNAc(b1-4)[Fuc(a1-6)]GlcNAc
# Procedure, shortened: as §1
# [7] = target: Fuc(a1-3)[Gal(b1-4)]GlcNAc(b1-3)Gal(b1-3)[Fuc(a1-4)]GlcNAc
# Procedure, shortened: as §1
# [8] = target: Fuc(a1-3)[Gal(b1-4)]GlcNAc(b1-3)Gal(b1-4)[Fuc(a1-3)]GlcNAc
# Procedure, shortened: as §1
# [9] = target: Fuc(a1-3)[Gal(b1-4)]GlcNAc(b1-3)Gal(b1-4)[Fuc(a1-3)]GlcNAc(b1-3)Gal(b1-4)[Fuc(a1-3)]GlcNAc
# Procedure, shortened: as §1
# [10] = target: Fuc(a1-3)[Gal(b1-4)]GlcNAc(b1-3)GalNAc
# Procedure, shortened: as §1
# [11] = target: Fuc(a1-3)[Gal(b1-4)]GlcNAc(b1-6)GalNAc
# Procedure, shortened: as §1
# [12] = target: Fuc(a1-3)[Gal(b1-4)]GlcNAc(b1-6)[Gal(b1-3)GlcNAc(b1-3)]Gal(b1-4)Glc
# Procedure, shortened: as §1
# [13] = target: Fuc(a1-3)[Gal(b1-4)]GlcNAc6S
# Procedure, shortened: as §1
# [14] = target: Fuc(a1-3)[Gal3S(b1-4)]Glc
# Procedure, shortened: as §1
# [15] = target: Fuc(a1-3)[Gal3S(b1-4)]GlcNAc
# Procedure, shortened: as §1
# [16] = target: Fuc(a1-3)[Gal3S(b1-4)]GlcNAc6S
# Procedure, shortened: as §1
# [17] = target: Fuc(a1-3)[GalNAc(b1-4)]GlcNAc
# Procedure, shortened: as §1
# [18] = target: Fuc(a1-3)[GalNAc(b1-4)]GlcNAc6S
# Procedure, shortened: as §1
# [19] = target: Fuc(a1-4)GlcNAc
# Procedure, shortened: as §1
# [20] = target: Fuc(b1-3)GlcNAc
# Procedure, shortened: as §1
# [21] = target: Gal(a1-2)Gal
# Procedure, shortened: as §1
# [22] = target: Gal(a1-3)Gal
# Procedure, shortened: as §1
# [23] = target: Gal(a1-3)Gal(b1-3)GlcNAc
# Procedure, shortened: as §1
# [24] = target: Gal(a1-3)Gal(b1-3)GlcNAc(b1-2)Man
# Procedure, shortened: as §1
# [25] = target: Gal(a1-3)Gal(b1-3)GlcNAc(b1-2)Man(a1-3)[Gal(a1-3)Gal(b1-3)GlcNAc(b1-2)Man(a1-6)]Man(b1-4)GlcNAc(b1-4)GlcNAc
# Procedure, shortened: as §1
# [26] = target: Gal(a1-3)Gal(b1-3)GlcNAc(b1-3)GalNAc
# Procedure, shortened: as §1
# [27] = target: Gal(a1-3)Gal(b1-3)GlcNAc(b1-6)GalNAc
# Procedure, shortened: as §1
# [28] = target: Gal(a1-3)Gal(b1-3)[Fuc(a1-4)]GlcNAc(b1-2)Man(a1-3)[Gal(a1-3)Gal(b1-3)[Fuc(a1-4)]GlcNAc(b1-2)Man(a1-6)]Man(b1-4)GlcNAc(b1-4)GlcNAc
# Procedure, shortened: as §1
# [29] = target: Gal(a1-3)Gal(b1-4)Glc
# Procedure, shortened: as §1
# [30] = target: Gal(a1-3)Gal(b1-4)GlcNAc
# Procedure, shortened: as §1
# [31] = target: Gal(a1-3)Gal(b1-4)GlcNAc(b1-2)Man
# Procedure, shortened: as §1
# [32] = target: Gal(a1-3)Gal(b1-4)GlcNAc(b1-2)Man(a1-3)[Gal(a1-3)Gal(b1-4)GlcNAc(b1-2)Man(a1-6)]Man(b1-4)GlcNAc(b1-4)GlcNAc
# Procedure, shortened: as §1
# [33] = target: Gal(a1-3)Gal(b1-4)GlcNAc(b1-3)GalNAc
# Procedure, shortened: as §1
# [34] = target: Gal(a1-3)Gal(b1-4)GlcNAc(b1-6)GalNAc
# Procedure, shortened: as §1
# [35] = target: Gal(a1-3)Gal(b1-4)[Fuc(a1-3)]GlcNAc
# Procedure, shortened: as §1
# [36] = target: Gal(a1-3)Gal(b1-4)[Fuc(a1-3)]GlcNAc(b1-2)Man(a1-3)[Gal(a1-3)Gal(b1-4)[Fuc(a1-3)]GlcNAc(b1-2)Man(a1-6)]Man(b1-4)GlcNAc(b1-4)GlcNAc
# Procedure, shortened: as §1
# [37] = target: Gal(a1-3)GalNAc
# Procedure, shortened: as §1
# [38] = target: Gal(a1-3)[Gal(a1-4)]Gal(b1-4)GlcNAc
# Procedure, shortened: as §1
# [39] = target: Gal(a1-4)Gal(b1-3)GlcNAc(b1-2)Man(a1-3)[Gal(a1-4)Gal(b1-3)GlcNAc(b1-2)Man(a1-6)]Man(b1-4)GlcNAc(b1-4)GlcNAc
# Procedure, shortened: as §1
# [40] = target: Gal(a1-4)Gal(b1-4)Glc
# Procedure, shortened: as §1
# [41] = target: Gal(a1-4)Gal(b1-4)GlcNAc
# Procedure, shortened: as §1
# [42] = target: Gal(a1-4)Gal(b1-4)GlcNAc(b1-2)Man(a1-3)[Gal(a1-4)Gal(b1-4)GlcNAc(b1-2)Man(a1-6)]Man(b1-4)GlcNAc(b1-4)GlcNAc
# Procedure, shortened: as §1
# [43] = target: Gal(a1-4)Gal(b1-4)GlcNAc(b1-3)Gal(b1-4)Glc
# Procedure, shortened: as §1
# [44] = target: Gal(a1-4)GlcNAc
# Procedure, shortened: as §1
# [45] = target: Gal(a1-6)Glc
# Procedure, shortened: as §1
# [46] = target: Gal(b1-2)Gal
# Procedure, shortened: as §1
# [47] = target: Gal(b1-3)Gal
# Procedure, shortened: as §1
# [48] = target: Gal(b1-3)Gal(b1-4)GlcNAc
# Procedure, shortened: as §1
# [49] = target: Gal(b1-3)GalNAc
# Procedure, shortened: as §1
# [50] = target: Gal(b1-3)GalNAc(a1-3)[Fuc(a1-2)]Gal(b1-4)Glc
# Procedure, shortened: as §1
# [51] = target: Gal(b1-3)GalNAc(a1-3)[Fuc(a1-2)]Gal(b1-4)GlcNAc
# Procedure, shortened: as §1
# [52] = target: Gal(b1-3)GalNAc(b1-3)Gal
# Procedure, shortened: as §1
# [53] = target: Gal(b1-3)GalNAc(b1-3)Gal(a1-4)Gal(b1-4)Glc
# Procedure, shortened: as §1
# [54] = target: Gal(b1-3)GalNAc(b1-4)Gal(b1-4)Glc
# Procedure, shortened: as §1
# [55] = target: Gal(b1-3)GalNAc(b1-4)[Neu5Ac(a2-3)]Gal(b1-4)Glc
# Procedure, shortened: as §1
# [56] = target: Gal(b1-3)GlcNAc
# Procedure, shortened: as §1
# [57] = target: Gal(b1-3)GlcNAc(a1-3)Gal(b1-4)GlcNAc
# Procedure, shortened: as §1
# [58] = target: Gal(b1-3)GlcNAc(a1-6)Gal(b1-4)GlcNAc
# Procedure, shortened: as §1
# [59] = target: Gal(b1-3)GlcNAc(b1-2)Man
# Procedure, shortened: as §1
# [60] = target: Gal(b1-3)GlcNAc(b1-2)Man(a1-3)[Gal(b1-3)GlcNAc(b1-2)Man(a1-6)]Man(b1-4)GlcNAc(b1-4)GlcNAc
# Procedure, shortened: as §1
binder,measurement,setting,value
B1,glycan array binding signal (z-score),[1],-1.2
same,glycan array binding signal (z-score),[2],-0.366
same,glycan array binding signal (z-score),[3],-0.447
same,glycan array binding signal (z-score),[4],-0.489
same,glycan array binding signal (z-score),[5],-1.02
same,glycan array binding signal (z-score),[6],2.56
same,glycan array binding signal (z-score),[7],0.715
same,glycan array binding signal (z-score),[8],-0.381
same,glycan array binding signal (z-score),[9],-0.568
same,glycan array binding signal (z-score),[10],0.072
same,glycan array binding signal (z-score),[11],1.2
same,glycan array binding signal (z-score),[12],0.031
same,glycan array binding signal (z-score),[13],-1
same,glycan array binding signal (z-score),[14],-0.824
same,glycan array binding signal (z-score),[15],0.384
same,glycan array binding signal (z-score),[16],0.755
same,glycan array binding signal (z-score),[17],0.354
same,glycan array binding signal (z-score),[18],-0.615
same,glycan array binding signal (z-score),[19],-0.512
same,glycan array binding signal (z-score),[20],-0.592
same,glycan array binding signal (z-score),[21],-0.874
same,glycan array binding signal (z-score),[22],-0.437
same,glycan array binding signal (z-score),[23],-0.313
same,glycan array binding signal (z-score),[24],-1.28
same,glycan array binding signal (z-score),[25],1.4
same,glycan array binding signal (z-score),[26],-0.571
same,glycan array binding signal (z-score),[27],-0.342
same,glycan array binding signal (z-score),[28],-0.29
same,glycan array binding signal (z-score),[29],-0.58
same,glycan array binding signal (z-score),[30],-0.092
same,glycan array binding signal (z-score),[31],-0.044
same,glycan array binding signal (z-score),[32],1.78
same,glycan array binding signal (z-score),[33],-1.06
same,glycan array binding signal (z-score),[34],0.309
same,glycan array binding signal (z-score),[35],-0.865
same,glycan array binding signal (z-score),[36],3.63
same,glycan array binding signal (z-score),[37],-0.028
same,glycan array binding signal (z-score),[38],0.09
same,glycan array binding signal (z-score),[39],-0.056
same,glycan array binding signal (z-score),[40],-0.678
same,glycan array binding signal (z-score),[41],0.073
same,glycan array binding signal (z-score),[42],2.76
same,glycan array binding signal (z-score),[43],0.141
same,glycan array binding signal (z-score),[44],-1.2
same,glycan array binding signal (z-score),[45],-0.496
same,glycan array binding signal (z-score),[46],1.6
same,glycan array binding signal (z-score),[47],-0.329
same,glycan array binding signal (z-score),[48],0.261
same,glycan array binding signal (z-score),[49],-0.504
same,glycan array binding signal (z-score),[50],0.951
same,glycan array binding signal (z-score),[51],-1.29
same,glycan array binding signal (z-score),[52],-0.996
same,glycan array binding signal (z-score),[53],0.56
same,glycan array binding signal (z-score),[54],0.069
same,glycan array binding signal (z-score),[55],0.792
same,glycan array binding signal (z-score),[56],-0.376
same,glycan array binding signal (z-score),[57],0.158
same,glycan array binding signal (z-score),[58],1.74
same,glycan array binding signal (z-score),[59],-0.141
same,glycan array binding signal (z-score),[60],0.515
